Data published in patent US20150044237A1 (CENTRE NATIONAL DE LA RECHERCHE SCIENTIFIQUE, published 2015).
These are yes or no findings as the source states them, for the method shown. Some entries that bind do so weakly or less than the wild type.

Chains of the proteins cited; added tags and fusions are not shown. Residues count along the entry.
UniProt P25445, residues 26-173: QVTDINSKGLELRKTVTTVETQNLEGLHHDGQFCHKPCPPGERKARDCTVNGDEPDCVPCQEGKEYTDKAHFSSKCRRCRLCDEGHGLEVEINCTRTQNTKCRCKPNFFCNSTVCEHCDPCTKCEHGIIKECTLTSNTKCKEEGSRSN

Tests used:
[1] = target: Recombinant Fas-Fc (R&Dsystems) (UniProt P25445); test: SPR (BIAcore 3000), Fas-Fc immobilised on the chip, analyte at 100 nM (highest concentration tested) [2) C]
[2] = target: Recombinant Fas-Fc (R&Dsystems) (UniProt P25445); test: SPR (BIAcore 3000), Fas-Fc immobilised on CM5 chip

binding [1]: binds | binding [2]: binds
B1: IgFasL (ligand)
chain: IPDSQTKVFPQDKVILVGSDITFCCVSQEKVLSALIGHTNCPLIHLDGENVAIKIRNISVSASSGTNVVFTTEDNIFGTVISRALQKELAELRESTSQMHTASSLEKQIGHPSPPPEKKELRKVAHLTGKSNSRSMPLEWEDTYGIVLLSGVKYKKGGLVINETGLYFVYSKVYFRGQSCNNLPLSHKVYMRNSKYPQDLVMMEGKMMSYCTTGQMWARSSYLGAVFNLTSADHLYVNVSELSLVNFEESQTFFGLYKL
notes: also called pFasL; polymeric FasL
